Assay results reported in paper PMC9606255.

By UniProt entry, the sequences of proteins in these tests, tags left out.
UniProt Q9C0C2: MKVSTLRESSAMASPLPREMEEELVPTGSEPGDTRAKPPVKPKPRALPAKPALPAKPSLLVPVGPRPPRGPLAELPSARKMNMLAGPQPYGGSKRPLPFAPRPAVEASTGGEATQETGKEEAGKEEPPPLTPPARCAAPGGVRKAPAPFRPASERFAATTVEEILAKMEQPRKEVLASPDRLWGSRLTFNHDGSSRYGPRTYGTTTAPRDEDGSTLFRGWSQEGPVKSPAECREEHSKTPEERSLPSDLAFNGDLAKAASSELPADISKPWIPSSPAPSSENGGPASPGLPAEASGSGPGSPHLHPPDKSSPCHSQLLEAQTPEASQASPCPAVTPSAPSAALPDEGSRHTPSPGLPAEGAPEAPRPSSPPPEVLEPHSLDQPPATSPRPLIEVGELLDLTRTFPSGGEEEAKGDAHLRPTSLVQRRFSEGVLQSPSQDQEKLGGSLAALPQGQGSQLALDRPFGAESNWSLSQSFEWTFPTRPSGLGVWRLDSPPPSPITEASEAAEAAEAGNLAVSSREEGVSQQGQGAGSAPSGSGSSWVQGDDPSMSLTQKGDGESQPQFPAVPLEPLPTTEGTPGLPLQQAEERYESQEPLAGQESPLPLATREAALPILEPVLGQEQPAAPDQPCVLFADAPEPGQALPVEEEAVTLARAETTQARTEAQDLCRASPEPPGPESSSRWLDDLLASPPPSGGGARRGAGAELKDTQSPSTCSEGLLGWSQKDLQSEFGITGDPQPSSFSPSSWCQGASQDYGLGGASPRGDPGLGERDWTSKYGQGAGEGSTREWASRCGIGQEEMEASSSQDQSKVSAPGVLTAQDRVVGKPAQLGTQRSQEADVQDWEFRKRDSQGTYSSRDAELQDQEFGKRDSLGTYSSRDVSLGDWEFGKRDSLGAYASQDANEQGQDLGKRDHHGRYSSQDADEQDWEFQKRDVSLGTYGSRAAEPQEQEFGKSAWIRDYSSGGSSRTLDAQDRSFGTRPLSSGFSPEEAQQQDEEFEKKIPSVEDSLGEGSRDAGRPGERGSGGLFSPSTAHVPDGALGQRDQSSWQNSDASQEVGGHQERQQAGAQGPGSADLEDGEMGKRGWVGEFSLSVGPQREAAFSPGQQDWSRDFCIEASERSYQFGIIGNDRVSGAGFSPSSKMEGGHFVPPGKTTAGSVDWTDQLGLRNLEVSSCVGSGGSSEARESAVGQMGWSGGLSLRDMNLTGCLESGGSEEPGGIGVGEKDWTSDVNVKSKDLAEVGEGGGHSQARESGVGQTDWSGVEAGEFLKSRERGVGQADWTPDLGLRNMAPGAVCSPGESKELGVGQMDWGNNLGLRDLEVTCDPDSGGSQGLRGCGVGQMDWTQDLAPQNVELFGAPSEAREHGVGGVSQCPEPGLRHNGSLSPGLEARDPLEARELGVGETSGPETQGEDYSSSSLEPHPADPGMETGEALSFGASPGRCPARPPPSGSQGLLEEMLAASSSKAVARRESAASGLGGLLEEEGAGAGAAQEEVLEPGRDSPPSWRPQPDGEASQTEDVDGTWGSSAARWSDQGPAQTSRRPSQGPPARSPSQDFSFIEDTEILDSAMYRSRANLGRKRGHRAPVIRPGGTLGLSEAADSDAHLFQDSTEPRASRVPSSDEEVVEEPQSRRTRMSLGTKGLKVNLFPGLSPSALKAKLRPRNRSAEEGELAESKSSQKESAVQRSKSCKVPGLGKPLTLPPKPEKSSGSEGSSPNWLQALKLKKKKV
UniProt P35222: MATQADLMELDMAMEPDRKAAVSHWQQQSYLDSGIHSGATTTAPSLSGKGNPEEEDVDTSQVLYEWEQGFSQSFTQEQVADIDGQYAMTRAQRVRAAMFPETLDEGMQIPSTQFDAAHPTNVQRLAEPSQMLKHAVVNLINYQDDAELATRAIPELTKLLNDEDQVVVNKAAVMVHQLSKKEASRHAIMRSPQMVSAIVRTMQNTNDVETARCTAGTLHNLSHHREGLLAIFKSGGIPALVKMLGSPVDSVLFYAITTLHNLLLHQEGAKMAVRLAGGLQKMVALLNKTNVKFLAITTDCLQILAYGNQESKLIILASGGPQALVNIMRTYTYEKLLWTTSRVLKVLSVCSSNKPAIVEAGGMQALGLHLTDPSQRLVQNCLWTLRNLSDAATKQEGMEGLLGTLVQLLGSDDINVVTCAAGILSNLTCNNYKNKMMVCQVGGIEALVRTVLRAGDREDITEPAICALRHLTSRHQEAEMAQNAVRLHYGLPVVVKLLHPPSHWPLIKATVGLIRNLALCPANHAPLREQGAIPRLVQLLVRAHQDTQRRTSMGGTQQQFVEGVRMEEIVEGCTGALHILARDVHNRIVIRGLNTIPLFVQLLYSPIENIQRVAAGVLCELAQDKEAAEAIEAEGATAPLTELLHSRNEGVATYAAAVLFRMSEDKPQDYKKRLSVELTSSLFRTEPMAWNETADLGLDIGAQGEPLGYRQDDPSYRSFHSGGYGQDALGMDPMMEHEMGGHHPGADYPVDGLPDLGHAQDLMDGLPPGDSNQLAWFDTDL

Biological target: TAB182 (human (endogenous in TE-10 and KYSE-150)) (UniProt Q9C0C2)
Assay: affinity purification with mass spectrometry; co-immunoprecipitation of TAB182 from ESCC cells, products on Coomassie-stained SDS-PAGE gel, MS/MS

β-catenin (from UniProt P35222 1-781)
binding: binds

These are yes or no findings as the source states them, for the method shown. In cells and extracts the contact can be indirect. These calls come from enrichment with a bait or labelling near it, and not all partners need be listed.
